Assay: Measurement of residual potential of photoreceptor
Conditions: photoreceptor with protective layer using the compound; Table 1

Row | SMILES | residual potential property (in words)
1 | C=C(C)C(=O)OCC(COC(=O)C(=C)C)OC(=O)CCC(=O)OCC(CC(C)C)N1C(=O)c2ccc3c4ccc5c6c(ccc(c7ccc(c2c37)C1=O)c64)C(=O)N(C(COC(=O)CCC(=O)OC(COC(=O)C(=C)C)COC(=O)C(=C)C)CC(C)C)C5=O (centres unmarked) [Comparative Compound 4] | poor residual potential property
2 | C=C(C)C(=O)OCC(COC(=O)C(=C)C)OC(=O)CCC(=O)OCC(COC(=O)CCC(=O)OC(COC(=O)C(=C)C)COC(=O)C(=C)C)N1C(=O)c2ccc3c4ccc5c6c(ccc(c7ccc(c2c37)C1=O)c64)C(=O)N(C(COC(=O)CCC(=O)OC(COC(=O)C(=C)C)COC(=O)C(=C)C)COC(=O)CCC(=O)OC(COC(=O)C(=C)C)COC(=O)C(=C)C)C5=O [Comparative Compound 5] | poor residual potential property
